Measured values as given in article PMC3408474, “Constitutive Phosphorylation of Interferon Receptor A-Associated Signaling Proteins in Systemic Lupus Erythematosus” (PLoS ONE, 2012).
No constants are given. Whether binding was seen depends on the method and setting. Binding seen in cells or lysates may run through a third protein. Some results given as binding are weak or reduced against the parent protein; the word gives no strength.

Amino acid sequences for entries named in this document (tags omitted). Residues count along the entry.
UniProt P17181, residues 28-557: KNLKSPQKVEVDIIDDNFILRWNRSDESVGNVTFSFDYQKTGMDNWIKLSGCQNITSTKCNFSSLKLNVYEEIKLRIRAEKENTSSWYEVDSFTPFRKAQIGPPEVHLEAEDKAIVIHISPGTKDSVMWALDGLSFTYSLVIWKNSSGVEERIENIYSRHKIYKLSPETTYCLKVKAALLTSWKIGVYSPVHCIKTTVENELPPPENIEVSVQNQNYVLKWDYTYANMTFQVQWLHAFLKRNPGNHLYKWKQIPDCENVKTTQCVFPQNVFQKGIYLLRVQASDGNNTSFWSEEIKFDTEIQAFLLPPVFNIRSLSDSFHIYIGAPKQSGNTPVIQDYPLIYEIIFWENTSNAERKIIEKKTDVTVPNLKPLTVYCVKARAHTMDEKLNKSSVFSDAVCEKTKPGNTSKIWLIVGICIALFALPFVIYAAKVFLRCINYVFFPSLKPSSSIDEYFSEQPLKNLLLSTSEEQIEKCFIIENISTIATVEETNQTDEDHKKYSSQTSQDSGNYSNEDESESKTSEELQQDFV
UniProt P29597: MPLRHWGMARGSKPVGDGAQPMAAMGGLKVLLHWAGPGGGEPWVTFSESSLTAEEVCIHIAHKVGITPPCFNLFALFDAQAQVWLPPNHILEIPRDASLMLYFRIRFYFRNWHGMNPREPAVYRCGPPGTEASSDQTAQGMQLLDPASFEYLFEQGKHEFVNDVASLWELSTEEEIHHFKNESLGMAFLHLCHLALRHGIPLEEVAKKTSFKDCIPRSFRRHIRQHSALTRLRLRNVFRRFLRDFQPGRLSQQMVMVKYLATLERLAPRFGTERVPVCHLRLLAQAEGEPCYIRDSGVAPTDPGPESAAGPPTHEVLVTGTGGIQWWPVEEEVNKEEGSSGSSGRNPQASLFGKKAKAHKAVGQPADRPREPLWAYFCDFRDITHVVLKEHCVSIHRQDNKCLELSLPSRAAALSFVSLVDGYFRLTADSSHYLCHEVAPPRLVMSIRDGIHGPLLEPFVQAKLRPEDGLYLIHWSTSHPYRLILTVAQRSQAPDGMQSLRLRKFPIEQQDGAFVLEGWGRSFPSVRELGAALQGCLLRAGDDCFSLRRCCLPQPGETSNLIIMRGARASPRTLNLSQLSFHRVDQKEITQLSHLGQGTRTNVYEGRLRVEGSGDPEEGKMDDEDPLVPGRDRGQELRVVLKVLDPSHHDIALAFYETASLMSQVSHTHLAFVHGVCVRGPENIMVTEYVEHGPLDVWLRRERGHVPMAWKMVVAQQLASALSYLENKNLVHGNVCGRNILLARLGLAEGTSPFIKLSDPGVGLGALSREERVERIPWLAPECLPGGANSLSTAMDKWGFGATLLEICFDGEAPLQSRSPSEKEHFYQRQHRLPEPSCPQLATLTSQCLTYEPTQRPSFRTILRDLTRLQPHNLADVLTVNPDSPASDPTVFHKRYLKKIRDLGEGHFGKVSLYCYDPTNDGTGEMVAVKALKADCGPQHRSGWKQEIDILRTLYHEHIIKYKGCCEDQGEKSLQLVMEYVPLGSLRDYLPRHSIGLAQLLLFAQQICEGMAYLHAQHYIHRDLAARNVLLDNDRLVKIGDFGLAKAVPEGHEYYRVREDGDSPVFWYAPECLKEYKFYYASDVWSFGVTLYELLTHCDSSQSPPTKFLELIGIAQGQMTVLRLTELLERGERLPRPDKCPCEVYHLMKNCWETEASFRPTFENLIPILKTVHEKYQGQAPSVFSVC
UniProt P52630: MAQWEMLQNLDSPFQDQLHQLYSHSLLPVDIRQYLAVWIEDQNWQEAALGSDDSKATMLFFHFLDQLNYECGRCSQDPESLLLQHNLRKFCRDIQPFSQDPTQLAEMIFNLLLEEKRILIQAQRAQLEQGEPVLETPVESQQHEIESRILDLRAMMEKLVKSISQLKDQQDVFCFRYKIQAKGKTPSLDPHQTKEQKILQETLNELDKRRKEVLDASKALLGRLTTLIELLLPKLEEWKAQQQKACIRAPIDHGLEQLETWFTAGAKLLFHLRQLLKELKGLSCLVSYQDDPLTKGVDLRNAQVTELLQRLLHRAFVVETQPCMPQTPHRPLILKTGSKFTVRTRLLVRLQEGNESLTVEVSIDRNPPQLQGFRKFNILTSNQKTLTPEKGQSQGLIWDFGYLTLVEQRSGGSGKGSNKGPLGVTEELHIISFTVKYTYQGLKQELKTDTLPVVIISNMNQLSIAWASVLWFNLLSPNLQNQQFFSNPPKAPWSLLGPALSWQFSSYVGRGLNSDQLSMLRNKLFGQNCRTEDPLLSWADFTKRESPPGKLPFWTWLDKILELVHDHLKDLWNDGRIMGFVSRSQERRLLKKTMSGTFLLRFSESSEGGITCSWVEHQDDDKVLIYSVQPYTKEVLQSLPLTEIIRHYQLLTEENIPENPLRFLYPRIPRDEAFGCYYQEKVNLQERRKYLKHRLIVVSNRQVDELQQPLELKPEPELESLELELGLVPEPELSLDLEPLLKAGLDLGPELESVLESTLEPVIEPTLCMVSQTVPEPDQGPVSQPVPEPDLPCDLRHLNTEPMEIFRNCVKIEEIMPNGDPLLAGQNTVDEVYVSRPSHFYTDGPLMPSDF

T1: IFNAR2 chain of the type I interferon receptor (IFNAR) (human (endogenous in PBMC)) (UniProt P48551)
T1 sequence: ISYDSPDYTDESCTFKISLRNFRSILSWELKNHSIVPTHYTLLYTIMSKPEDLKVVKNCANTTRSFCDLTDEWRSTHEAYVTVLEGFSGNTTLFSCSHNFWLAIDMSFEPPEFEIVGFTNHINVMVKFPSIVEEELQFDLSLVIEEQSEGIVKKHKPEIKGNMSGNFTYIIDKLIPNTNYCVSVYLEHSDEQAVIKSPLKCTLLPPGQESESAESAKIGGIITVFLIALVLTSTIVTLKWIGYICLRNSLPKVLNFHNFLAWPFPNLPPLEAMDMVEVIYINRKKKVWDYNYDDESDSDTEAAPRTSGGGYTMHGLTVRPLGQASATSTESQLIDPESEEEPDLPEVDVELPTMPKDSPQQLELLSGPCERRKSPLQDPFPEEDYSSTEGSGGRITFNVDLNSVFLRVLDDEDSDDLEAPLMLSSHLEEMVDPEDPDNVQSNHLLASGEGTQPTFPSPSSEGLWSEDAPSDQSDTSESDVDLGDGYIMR

B1: suppressor of cytokine signaling 1 (SOCS1) (natural protein, human (endogenous in PBMC), UniProt O15524 1-211, looked up)
chain: MVAHNQVAADNAVSTAAEPRRRPEPSSSSSSSPAAPARPRPCPAVPAPAPGDTHFRTFRSHADYRRITRASALLDACGFYWGPLSVHGAHERLRAEPVGTFLVRDSRQRNCFFALSVKMASGPTSIRVHFQAGRFHLDGSRESFDCLFELLEHYVAAPRRMLGAPLRQRRVRPLQELCRQRIVATVGRENLARIPLNPVLRDYLSSFPFQI
notes: SOCS1, endogenous in human peripheral blood mononuclear cells; detected by blot with anti-SOCS1; source: endogenous, lysate of PBMC from SLE patients or healthy controls

How the values were obtained:
[1] = molecular target: IFNAR1 chain of the type I interferon receptor (IFNAR) (human (endogenous in PBMC)) (UniProt P17181); experiment: co-IP; lysates (50 µg total protein) of PBMC from SLE patients or healthy controls, cultured in medium alone or with 50 U/ml IFNβ for 0, 30 min, 1 h and 4 h; incubated overnight at 4°C with mouse anti-IFNAR1 (protein A-Sepharose 4B) and/or rabbit anti-IFNAR2 (protein G-Sepharose 4B); blotted for SOCS1, STAT2, Jak1 and Tyk2
[2] = molecular target: T1, IFNAR2 chain of the type I interferon receptor (IFNAR) (human (endogenous in PBMC)); experiment: as above
[3] = molecular target: T1, IFNAR2 chain of the type I interferon receptor (IFNAR) (human (endogenous in PBMC)); experiment: co-IP; as a1, but only unstimulated PBMC (time 0, no IFNβ added); lysate precipitated with rabbit anti-IFNAR2 and protein G-Sepharose 4B, blotted for SOCS1

Row | Molecule | binding [1] | binding [2] | binding [3]
1 | Janus kinase Tyk2 (from UniProt P29597 1-1187) (enzyme) | binds |  | 
2 | signal transduction and activator of transcription 2 (STAT2) (from UniProt P52630 1-851) |  | binds | 
3 | B1 | binds | binds | no binding (condition: unstimulated PBMC, without IFNβ)
